Data: the supplement of paper PMC4604168 (melanoma cell lines)
The other results are listed elsewhere or left out. Many values rest on one well or one pass, so single values are uncertain.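 Imaging used 1,536-well plates; nuclei positive for cleaved PARP by antibody were divided by total DNA-stained nuclei to yield the apoptosis fraction. Doses for screening kept most cells viable, and cell lines differ markedly in resting and induced cleaved-PARP levels.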

What was measured:
Assay in all cases: cleaved PARP positive nuclei fraction relative to DMSO control; melanoma cells; higher = more apoptosis
Details in all cases: library dose: low library concentration; 72 h
A101D = test system: A101D
A2058 = test system: A2058
A375 = test system: A375
C32 = test system: C32
CBRC008 = test system: CBRC008 (line from a melanoma biopsy)
CBRC014 = test system: CBRC014 (line from a melanoma biopsy)
CBRC016 = test system: CBRC016 (line from a melanoma biopsy)
CBRC017 = test system: CBRC017 (line from a melanoma biopsy)
CBRC034 = test system: CBRC034 (line from a melanoma biopsy)
COLO792 = test system: COLO792
COLO800 = test system: COLO800
COLO829 = test system: COLO829
G361 = test system: G361
IPC-298 = test system: IPC-298
IST-MEL1 = test system: IST-MEL1
LOXIMVI = test system: LOXIMVI
MEL-HO = test system: MEL-HO

Row | Structure (SMILES) | cleaved PARP positive nuclei fraction (A101D) | cleaved PARP positive nuclei fraction (A2058) | cleaved PARP positive nuclei fraction (A375) | cleaved PARP positive nuclei fraction (C32) | cleaved PARP positive nuclei fraction (CBRC008) | cleaved PARP positive nuclei fraction (CBRC014) | cleaved PARP positive nuclei fraction (CBRC016) | cleaved PARP positive nuclei fraction (CBRC017) | cleaved PARP positive nuclei fraction (CBRC034) | cleaved PARP positive nuclei fraction (COLO792) | cleaved PARP positive nuclei fraction (COLO800) | cleaved PARP positive nuclei fraction (COLO829) | cleaved PARP positive nuclei fraction (G361) | cleaved PARP positive nuclei fraction (IPC-298) | cleaved PARP positive nuclei fraction (IST-MEL1) | cleaved PARP positive nuclei fraction (LOXIMVI) | cleaved PARP positive nuclei fraction (MEL-HO)
1 | CNC(=O)c1cc(Oc2ccc(NC(=O)Nc3ccc(Cl)c(C(F)(F)F)c3)cc2)ccn1 [sorafenib] + COCC[n+]1c2c(n(Cc3cnccn3)c1C)C(=O)c1ccccc1C2=O [YM155] (first compound 0.4 µM, partner dose 0.0004 µM) | 40.9% | 191% | 112% | 71.6% | 249% | 99.8% | 22.4% | 101% | 89.9% | 26.3% | 52.1% | 141% | 53.9% | 97.6% | 58.5% | 241% | 38%
2 | Nc1ccn([C@@H]2O[C@H](CO)[C@@H](O)C2(F)F)c(=O)n1 [gemcitabine] + C#Cc1cccc(Nc2ncnc3cc(OCCOC)c(OCCOC)cc23)c1 [erlotinib] (first compound 0.0004 µM, partner dose 0.8 µM) | 129% | 122% | 201% | 74.9% | 434% | 140% | 198% | 196% | 54.2% | 170% | 99.4% | 188% | 253% | 103% | 85.3% | 110% | 170%
3 | C[C@@H](Oc1cc(-c2cnn(C3CCNCC3)c2)cnc1N)c1c(Cl)ccc(F)c1Cl [Crizotinib] + O=C(Nc1ccccc1)c1cc([N+](=O)[O-])ccc1Cl [GW9662] (first compound 0.2 µM, partner dose 2 µM) | 34.1% | 74.5% | – | 68.7% | 178% | 93.2% | 42.8% | 175% | – | 112% | 77.1% | 124% | 28.3% | 36.8% | 94.8% | 147% | –
4 | CO[C@H]1C[C@@H]2CC[C@@H](C)[C@@](O)(O2)C(=O)C(=O)N2CCCC[C@H]2C(=O)O[C@H]([C@H](C)C[C@@H]2CC[C@@H](OCCO)[C@H](OC)C2)CC(=O)[C@H](C)/C=C(\C)[C@@H](O)[C@@H](OC)C(=O)[C@H](C)C[C@H](C)/C=C/C=C/C=C/1C [everolimus] + COCC[n+]1c2c(n(Cc3cnccn3)c1C)C(=O)c1ccccc1C2=O [YM155] (first compound 0.02 µM, partner dose 0.0004 µM) | 125% | 99.9% | 275% | 100% | 319% | 108% | 126% | 178% | 222% | 122% | 236% | 262% | 176% | 142% | 78.5% | 142% | 145%
5 | Cn1c(=O)n(-c2ccc(C(C)(C)C#N)cc2)c2c3cc(-c4cnc5ccccc5c4)ccc3ncc21 + CNC(=O)c1cc(Oc2ccc(NC(=O)Nc3ccc(Cl)c(C(F)(F)F)c3)cc2)ccn1 [sorafenib] (first compound 0.004 µM, partner dose 0.4 µM) | 64.3% | 113% | 157% | 164% | 37% | 83.8% | 32.9% | 137% | 45.7% | 89.3% | 63.2% | 89.6% | 57.8% | 206% | 33.2% | 133% | 121%
6 | Nc1nc(F)nc2c1ncn2[C@@H]1O[C@H](CO)[C@@H](O)[C@@H]1O [fludarabine] + O=S(=O)(c1ccccc1)N(CC(F)(F)F)c1ccc(C(O)(C(F)(F)F)C(F)(F)F)cc1 [T0901317] (first compound 0.2 µM, partner dose 1.4 µM) | 44.7% | 96.1% | – | 83.2% | 154% | 86.5% | 94.5% | 90.9% | – | 42.2% | 88% | 80.7% | 111% | 50.9% | 156% | 116% | –
7 | O=C(O)c1ccc2c(c1)nc(Nc1cccc(Cl)c1)c1ccncc12 + c1cc(-c2cnn3cc(-c4ccc(OCCN5CCCCC5)cc4)cnc23)ccn1 [Dorsomorphin] (first compound 0.4 µM, partner dose 0.4 µM) | 17.5% | 198% | – | 146% | 86% | 120% | 21.5% | 146% | – | 184% | 68.8% | 256% | 83.8% | 104% | 67.7% | 57% | –
8 | O=C(O)[C@@H]1[O][Sb](=[O])([O][Sb]2(=[O])[O][C@H]([C@H](O)CO)[C@H](O)[C@H](C(=O)O)[O]2)[O][C@H]([C@H](O)CO)[C@@H]1O (some centres undefined) [stibogluconate] + Nc1ncn([C@H]2C[C@H](O)[C@@H](CO)O2)c(=O)n1 [decitabine] (first compound 2 µM, partner dose 0.1 µM) | 99.8% | 67.7% | 202% | 77% | 92.3% | 96.5% | 51.2% | 120% | 37.1% | 23.3% | 59.9% | 50.4% | 87.2% | 128% | 138% | 85.5% | 71.6%
9 | Cn1c(=O)n(-c2ccc(C(C)(C)C#N)cc2)c2c3cc(-c4cnc5ccccc5c4)ccc3ncc21 + COc1ccc(-c2ccc3c(N4CCOCC4)nc(N4C[C@@H](C)O[C@@H](C)C4)nc3n2)cc1CO [KU0063794] (first compound 0.004 µM, partner dose 0.02 µM) | 55.8% | 97.3% | – | 90.6% | 113% | 87.5% | 71.5% | 113% | – | 110% | 183% | 139% | 156% | 103% | 176% | 131% | –
10 | CN1CCN(c2ccc3nc(-c4c(N)c5c(F)cccc5[nH]c4=O)[nH]c3c2)CC1 [Dovitinib] + O=S(=O)(c1ccccc1)N(CC(F)(F)F)c1ccc(C(O)(C(F)(F)F)C(F)(F)F)cc1 [T0901317] (first compound 0.1 µM, partner dose 1.4 µM) | 18.7% | 139% | – | 75.9% | 150% | 109% | 43.9% | 149% | – | 57.9% | 49.2% | 242% | 105% | 49.9% | 45.4% | 180% | –
11 | Nc1ccn([C@@H]2O[C@H](CO)[C@@H](O)C2(F)F)c(=O)n1 [gemcitabine] + O=C(Nc1ccccc1)c1cc([N+](=O)[O-])ccc1Cl [GW9662] (first compound 0.0004 µM, partner dose 2 µM) | 38.6% | 87.1% | – | 122% | 184% | 145% | 195% | 227% | – | 72.6% | 116% | 48.4% | 111% | 118% | 135% | 154% | –
12 | C[C@@H](Oc1cc(-c2cnn(C3CCNCC3)c2)cnc1N)c1c(Cl)ccc(F)c1Cl [Crizotinib] + Nc1nc(F)nc2c1ncn2[C@@H]1O[C@H](CO)[C@@H](O)[C@@H]1O [fludarabine] (first compound 0.2 µM, partner dose 0.2 µM) | 43% | 96.4% | 4840% | 69.9% | 94.9% | 97.5% | 103% | 104% | 191% | 104% | 135% | 200% | 139% | 116% | 33.6% | 111% | 48.4%
13 | CS(=O)(=O)CCNCc1ccc(-c2ccc3ncnc(Nc4ccc(OCc5cccc(F)c5)c(Cl)c4)c3c2)o1 [lapatinib] + O=c1cc(-c2cccc3c2Sc2ccccc2S3)oc(N2CCOCC2)c1 [KU55933] (first compound 0.8 µM, partner dose 1 µM) | 20.6% | 86.5% | – | 169% | 128% | 179% | 22% | 144% | – | 296% | 147% | 133% | 98.4% | 98.1% | 111% | 140% | –
14 | Nc1ncn([C@H]2C[C@H](O)[C@@H](CO)O2)c(=O)n1 [decitabine] + O=C(O)C(=O)Nc1sc2c(c1C(=O)O)CCNC2 [TCS401] (first compound 0.1 µM, partner dose 1.66667 µM) | 41.3% | 210% | – | 36.5% | 57.5% | 94.5% | 79.2% | 80.3% | – | 86.4% | 46.2% | 106% | 190% | 294% | 139% | 124% | –
15 | O=C(O)[C@@H]1[O][Sb](=[O])([O][Sb]2(=[O])[O][C@H]([C@H](O)CO)[C@H](O)[C@H](C(=O)O)[O]2)[O][C@H]([C@H](O)CO)[C@@H]1O (some centres undefined) [stibogluconate] + O=S(=O)(c1ccccc1)N(CC(F)(F)F)c1ccc(C(O)(C(F)(F)F)C(F)(F)F)cc1 [T0901317] (first compound 2 µM, partner dose 1.4 µM) | 30.6% | 167% | – | 102% | 56% | 216% | 61.8% | 58.1% | – | 76.8% | 34.9% | 184% | 148% | 51.3% | 33.3% | 35% | –
16 | O=C(O)c1ccc2c(c1)nc(Nc1cccc(Cl)c1)c1ccncc12 + C#Cc1cccc(Nc2ncnc3cc(OCCOC)c(OCCOC)cc23)c1 [erlotinib] (first compound 0.4 µM, partner dose 0.8 µM) | 69.6% | 278% | 345% | 76.9% | 159% | 133% | 230% | 173% | 129% | 143% | 63% | 54.2% | 130% | 205% | 56.9% | 150% | 173%
17 | CC(C)C[C@H](NC(=O)[C@H](Cc1ccccc1)NC(=O)c1cnccn1)B(O)O [Bortezomib] + Clc1ccc(Nc2nnc(Cc3ccncc3)c3ccccc23)cc1 [vatalanib] (first compound 0.001 µM, partner dose 2 µM) | 430% | 92.5% | 115% | 94.3% | 1350% | 261% | 1060% | 501% | 236% | 70% | 86.1% | 213% | 1860% | 227% | 145% | 197% | 115%
18 | Cc1cc(Nc2cc(N3CCN(C)CC3)nc(/C=C/c3ccccc3)n2)n[nH]1 + Cn1c(Nc2ccc(C(F)(F)F)cc2)nc2cc(Oc3ccnc(-c4ncc(C(F)(F)F)[nH]4)c3)ccc21 [CHIR265] (first compound 0.04 µM, partner dose 0.08 µM) | 202% | 193% | 302% | 96.3% | 44.9% | 91.2% | 77.9% | 119% | 35.8% | 99.8% | 105% | 204% | 106% | 123% | 191% | 120% | 94.6%

Exported tab-delimited: entries from further up
Row	Structure (SMILES)	cleaved PARP positive nuclei fraction (A101D)	cleaved PARP positive nuclei fraction (A2058)	cleaved PARP positive nuclei fraction (A375)	cleaved PARP positive nuclei fraction (C32)	cleaved PARP positive nuclei fraction (CBRC008)	cleaved PARP positive nuclei fraction (CBRC014)	cleaved PARP positive nuclei fraction (CBRC016)	cleaved PARP positive nuclei fraction (CBRC017)	cleaved PARP positive nuclei fraction (CBRC034)	cleaved PARP positive nuclei fraction (COLO792)	cleaved PARP positive nuclei fraction (COLO800)	cleaved PARP positive nuclei fraction (COLO829)	cleaved PARP positive nuclei fraction (G361)	cleaved PARP positive nuclei fraction (IPC-298)	cleaved PARP positive nuclei fraction (IST-MEL1)	cleaved PARP positive nuclei fraction (LOXIMVI)	cleaved PARP positive nuclei fraction (MEL-HO)
17	CC(C)C[C@H](NC(=O)[C@H](Cc1ccccc1)NC(=O)c1cnccn1)B(O)O [Bortezomib] + Clc1ccc(Nc2nnc(Cc3ccncc3)c3ccccc23)cc1 [vatalanib] (first compound 0.001 µM, partner dose 2 µM)	430%	92.5%	115%	94.3%	1350%	261%	1060%	501%	236%	70%	86.1%	213%	1860%	227%	145%	197%	115%
18	Cc1cc(Nc2cc(N3CCN(C)CC3)nc(/C=C/c3ccccc3)n2)n[nH]1 + Cn1c(Nc2ccc(C(F)(F)F)cc2)nc2cc(Oc3ccnc(-c4ncc(C(F)(F)F)[nH]4)c3)ccc21 [CHIR265] (first compound 0.04 µM, partner dose 0.08 µM)	202%	193%	302%	96.3%	44.9%	91.2%	77.9%	119%	35.8%	99.8%	105%	204%	106%	123%	191%	120%	94.6%
